Results taken from PMC5665977.
Like-named read-outs stand apart in the source and are kept apart here. Results are given in words; binding and its absence hold for the method and conditions named. For some assays here: In cells and extracts the contact can be indirect. Some binding calls cover weakened binding; strength is not graded here. For some assays here: Where a sequence is shown, tags or fusion partners need not be part of it.

Protein sequences, listed by entry. Tags and fused reporters are not part of them. Residues count along the entry.
UniProt P61829: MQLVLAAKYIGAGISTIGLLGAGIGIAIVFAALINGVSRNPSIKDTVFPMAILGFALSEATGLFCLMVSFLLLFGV
UniProt P00830, residues 34-511: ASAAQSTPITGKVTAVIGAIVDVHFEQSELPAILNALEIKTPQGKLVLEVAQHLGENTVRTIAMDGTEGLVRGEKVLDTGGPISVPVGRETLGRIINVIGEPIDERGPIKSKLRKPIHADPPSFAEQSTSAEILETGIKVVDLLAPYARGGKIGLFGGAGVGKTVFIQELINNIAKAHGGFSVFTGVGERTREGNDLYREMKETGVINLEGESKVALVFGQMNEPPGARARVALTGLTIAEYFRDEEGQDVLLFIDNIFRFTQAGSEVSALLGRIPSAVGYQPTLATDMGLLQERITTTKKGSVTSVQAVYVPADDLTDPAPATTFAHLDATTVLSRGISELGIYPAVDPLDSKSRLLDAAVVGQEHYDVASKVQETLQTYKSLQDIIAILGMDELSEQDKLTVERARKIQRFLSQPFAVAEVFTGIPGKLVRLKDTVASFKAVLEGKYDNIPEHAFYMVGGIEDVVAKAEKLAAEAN

How the values were obtained:
[1] = biological target: T1, Cbp3^ProtA (S. cerevisiae) (UniProt P21560); assay: co-IP; IgG-affinity chromatography of Cbp3, Cbp4 or Cbp6 with a C-terminal Protein A tag from mitochondria, in part after radiolabeling of mitochondrial-encoded proteins
T1 sequence: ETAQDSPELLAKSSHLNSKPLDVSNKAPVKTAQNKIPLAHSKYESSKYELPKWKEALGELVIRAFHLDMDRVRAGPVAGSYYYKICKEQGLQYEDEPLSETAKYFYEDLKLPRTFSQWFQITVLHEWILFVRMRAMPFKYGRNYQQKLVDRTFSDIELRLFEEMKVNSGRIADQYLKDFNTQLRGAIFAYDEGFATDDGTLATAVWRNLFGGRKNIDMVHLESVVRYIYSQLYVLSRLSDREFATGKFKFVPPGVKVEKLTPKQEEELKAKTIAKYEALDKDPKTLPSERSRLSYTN

[2] = biological target: T2, Ina22 (S. cerevisiae (endogenous in BY4741 mitochondria)) (UniProt P40576); assay: co-IP; rabbit antiserum (anti-Ina22, anti-Ina17 or anti-Atp23) coupled to Protein A sepharose; mitochondria solubilised in 1% digitonin, 160 mM NaCl, 20 mM Tris-HCl pH 7.5, 10% glycerol, 4 °C; wild-type or ina22Δ mitochondria, control or chloramphenicol-pretreated, in part after in organello [35S] labelling
T2 sequence: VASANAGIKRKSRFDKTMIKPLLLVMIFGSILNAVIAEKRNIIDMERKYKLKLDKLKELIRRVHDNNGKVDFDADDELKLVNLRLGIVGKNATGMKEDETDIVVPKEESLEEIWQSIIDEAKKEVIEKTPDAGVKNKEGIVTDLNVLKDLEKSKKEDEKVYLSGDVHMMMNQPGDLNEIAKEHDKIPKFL

[3] = biological target: T3, Ina22^FLAG (S. cerevisiae) (UniProt P40576); assay: cross-linking; chemical crosslinking of mitochondria (250 μM cross-linker, 20 mM HEPES pH 7.4, 100 mM NaCl, on ice 30 min), in part after radiolabeling of mitochondrial-encoded proteins; Ina22^FLAG purified under denaturing conditions (1% SDS, then Triton X100); autoradiography or western blotting
T3 sequence: T2 sequence

[4] = biological target: Atp9 (S. cerevisiae (endogenous in BY4741 mitochondria)) (UniProt P61829); assay: co-IP + native gel or EMSA; native anti-FLAG isolation of Ina22^FLAG complexes from chloramphenicol-pretreated mitochondria after in organello labelling; BN-PAGE, second dimension SDS-PAGE, autoradiography and western blotting
[5] = biological target: T4, Atp10^ProtA (S. cerevisiae) (UniProt P18496); assay: co-IP + native gel or EMSA; Atp10^ProtA complexes purified by IgG-affinity chromatography, eluted natively by TEV cleavage, analysed by BN-PAGE (in part second dimension SDS-PAGE) with western blotting or autoradiography
T4 sequence: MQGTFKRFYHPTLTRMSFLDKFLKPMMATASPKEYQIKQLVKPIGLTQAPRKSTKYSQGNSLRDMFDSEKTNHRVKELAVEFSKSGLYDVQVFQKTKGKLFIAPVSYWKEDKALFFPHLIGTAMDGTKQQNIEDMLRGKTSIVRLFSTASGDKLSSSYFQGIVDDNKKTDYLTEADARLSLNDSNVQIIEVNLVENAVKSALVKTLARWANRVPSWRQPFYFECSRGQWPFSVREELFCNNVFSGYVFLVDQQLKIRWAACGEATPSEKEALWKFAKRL

[6] = biological target: T4, Atp10^ProtA (S. cerevisiae); assay: co-IP; two-step: Atp10^ProtA complexes isolated natively by IgG-affinity chromatography and TEV cleavage, the eluate then immunoprecipitated with anti-Atp2 antibodies or control pre-immune serum; western blotting
[7] = biological target: T4, Atp10^ProtA (S. cerevisiae); assay: co-IP; IgG-affinity chromatography of Atp10^ProtA; mitochondria (wild-type or ina22Δ background, control or chloramphenicol-pretreated, in part after in organello [35S] labelling) solubilised in 1% digitonin, 160 mM NaCl, 20 mM Tris-HCl pH 7.5, 10% glycerol (low stringency), 4 °C
[8] = biological target: T4, Atp10^ProtA (S. cerevisiae); assay: co-IP; IgG-affinity chromatography of Atp10^ProtA under high-stringent conditions: 1% digitonin, 400 mM NaCl, 10 mM Tris-HCl pH 9.0
[9] = biological target: T4, Atp10^ProtA (S. cerevisiae); assay: co-IP + native gel or EMSA; Atp10^ProtA complexes purified by IgG-affinity chromatography, eluted natively by TEV cleavage, analysed by BN-PAGE (in part second dimension SDS-PAGE) with western blotting or autoradiography; remark: listed apart in the source
[10] = biological target: T3, Ina22^FLAG (S. cerevisiae); assay: co-IP + native gel or EMSA; native anti-FLAG isolation of Ina22^FLAG complexes from chloramphenicol-pretreated mitochondria after in organello labelling; BN-PAGE, second dimension SDS-PAGE, autoradiography and western blotting
[11] = biological target: T5, Atp23 (S. cerevisiae (endogenous in BY4741 mitochondria)) (UniProt P53722); assay: co-IP; rabbit antiserum (anti-Ina22, anti-Ina17 or anti-Atp23) coupled to Protein A sepharose; mitochondria solubilised in 1% digitonin, 160 mM NaCl, 20 mM Tris-HCl pH 7.5, 10% glycerol, 4 °C; wild-type or ina22Δ mitochondria, control or chloramphenicol-pretreated, in part after in organello [35S] labelling
T5 sequence: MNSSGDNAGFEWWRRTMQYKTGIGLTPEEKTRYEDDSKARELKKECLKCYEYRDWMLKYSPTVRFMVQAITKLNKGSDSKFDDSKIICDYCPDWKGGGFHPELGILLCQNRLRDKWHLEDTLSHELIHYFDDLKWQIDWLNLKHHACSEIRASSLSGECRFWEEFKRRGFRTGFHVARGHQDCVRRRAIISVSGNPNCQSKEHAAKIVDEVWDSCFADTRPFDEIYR

[12] = biological target: T2, Ina22 (S. cerevisiae (endogenous in BY4741 mitochondria)); assay: as above; remark: listed apart in the source
[13] = biological target: T5, Atp23 (S. cerevisiae (endogenous in BY4741 mitochondria)); assay: native gel or EMSA; chloramphenicol-pretreated wild-type and ina22Δ mitochondria, in part labelled in organello for 15 min; BN-PAGE and second dimension SDS-PAGE or urea SDS-PAGE, autoradiography or western blotting
[14] = biological target: T6, Cbp4 with a C-terminal Protein A tag (S. cerevisiae) (UniProt P37267); assay: co-IP; IgG-affinity chromatography of Cbp3, Cbp4 or Cbp6 with a C-terminal Protein A tag from mitochondria, in part after radiolabeling of mitochondrial-encoded proteins
T6 sequence: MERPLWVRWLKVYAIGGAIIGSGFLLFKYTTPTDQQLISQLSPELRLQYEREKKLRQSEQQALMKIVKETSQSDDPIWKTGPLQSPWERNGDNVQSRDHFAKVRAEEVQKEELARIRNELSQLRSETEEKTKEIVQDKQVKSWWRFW

[15] = biological target: T7, Cbp6 with a C-terminal Protein A tag (S. cerevisiae) (UniProt P07253); assay: as above
T7 sequence: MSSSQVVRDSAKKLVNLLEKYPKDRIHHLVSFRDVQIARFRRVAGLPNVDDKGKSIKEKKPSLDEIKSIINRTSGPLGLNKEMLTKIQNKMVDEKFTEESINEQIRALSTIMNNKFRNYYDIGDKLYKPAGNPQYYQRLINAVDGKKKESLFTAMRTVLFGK

[16] = biological target: T1, Cbp3^ProtA (S. cerevisiae); assay: co-IP + native gel or EMSA; isolated Cbp3^ProtA-containing complexes analysed by BN-PAGE and second dimension SDS-PAGE
[17] = biological target: T8, Atp6 (S. cerevisiae (endogenous in BY4741 mitochondria)) (UniProt P00854); assay: native gel or EMSA; chloramphenicol-pretreated wild-type and ina22Δ mitochondria, in part labelled in organello for 15 min; BN-PAGE and second dimension SDS-PAGE or urea SDS-PAGE, autoradiography or western blotting
T8 sequence: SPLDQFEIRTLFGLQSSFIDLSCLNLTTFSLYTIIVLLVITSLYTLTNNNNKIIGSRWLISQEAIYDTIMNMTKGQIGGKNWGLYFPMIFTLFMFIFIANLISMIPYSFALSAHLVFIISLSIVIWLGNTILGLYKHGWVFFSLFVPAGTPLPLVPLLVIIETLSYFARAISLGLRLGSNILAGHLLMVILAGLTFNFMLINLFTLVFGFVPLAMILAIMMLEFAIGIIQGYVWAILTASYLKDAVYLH

[18] = biological target: T3, Ina22^FLAG (S. cerevisiae); assay: co-IP; anti-FLAG M2 affinity gel purification of Ina22^FLAG from solubilised mitochondria, after import of [35S]-labeled Atp10 or after labelling of mitochondrial translation products

## Atp9 (from UniProt P61829 1-76)
[1]
  binding: no binding
[2]
  binding: binds
[3]
  binding: binds
[4]
  binding: binds

## Atp2 (from UniProt P00830 34-511)
[5]
  binding: binds
[6]
  binding: binds

B1: Atp6 (protein, UniProt P00854 11-259)
chain: T8 sequence
[1]
  binding: no binding
[3]
  binding: binds
[7]
  binding: binds
[8]
  binding: binds
[9]
  binding: binds
[10]
  binding: binds
[11]
  binding: binds
[12]
  binding: binds
[13]
  binding: binds

B2: Ina22 (protein, UniProt P40576 27-216)
chain: T2 sequence
[14]
  binding: binds
[1]
  binding: binds
[15]
  binding: binds
[7]
  binding: binds
[9]
  binding: binds
[16]
  binding: binds

B3: Ina17 (protein, UniProt Q02888 46-182)
chain: IKSLEDLANLDSLDGVDTELIRDLINEHTTKLNIKKELDMLKKFSQEEESGHEIPVKRFIRPLWMFILMGSSVYLLLHFSWWKLEHEERESQLKKEVEILEHQLNELIVQDKTHNTSRGKGSNESTHMKPWYRRWFW
[14]
  binding: binds
[1]
  binding: binds
[15]
  binding: binds
[7]
  binding: binds
[9]
  binding: binds
[16]
  binding: binds

B4: Atp8 (peptide, UniProt P00856 1-48)
chain: MPQLVPFYFMNQLTYGFLLMITLLILFSQFFLPMILRLYVSRLFISKL
[7]
  binding: binds
[8]
  binding: binds
[9]
  binding: binds
[10]
  binding: binds
[12]
  binding: binds
[17]
  binding: binds
[13]
  binding: binds

B5: [35S]-labeled Atp10 imported into mitochondria (protein, UniProt P18496 1-279)
chain: T4 sequence
[18]
  binding: binds
